Here are results for two molecules from article PMC13018599.

Sequences of proteins named here, by UniProt entry; tags and fusion partners are left off. Residues count along the entry.
UniProt P70206, residues 28-1242: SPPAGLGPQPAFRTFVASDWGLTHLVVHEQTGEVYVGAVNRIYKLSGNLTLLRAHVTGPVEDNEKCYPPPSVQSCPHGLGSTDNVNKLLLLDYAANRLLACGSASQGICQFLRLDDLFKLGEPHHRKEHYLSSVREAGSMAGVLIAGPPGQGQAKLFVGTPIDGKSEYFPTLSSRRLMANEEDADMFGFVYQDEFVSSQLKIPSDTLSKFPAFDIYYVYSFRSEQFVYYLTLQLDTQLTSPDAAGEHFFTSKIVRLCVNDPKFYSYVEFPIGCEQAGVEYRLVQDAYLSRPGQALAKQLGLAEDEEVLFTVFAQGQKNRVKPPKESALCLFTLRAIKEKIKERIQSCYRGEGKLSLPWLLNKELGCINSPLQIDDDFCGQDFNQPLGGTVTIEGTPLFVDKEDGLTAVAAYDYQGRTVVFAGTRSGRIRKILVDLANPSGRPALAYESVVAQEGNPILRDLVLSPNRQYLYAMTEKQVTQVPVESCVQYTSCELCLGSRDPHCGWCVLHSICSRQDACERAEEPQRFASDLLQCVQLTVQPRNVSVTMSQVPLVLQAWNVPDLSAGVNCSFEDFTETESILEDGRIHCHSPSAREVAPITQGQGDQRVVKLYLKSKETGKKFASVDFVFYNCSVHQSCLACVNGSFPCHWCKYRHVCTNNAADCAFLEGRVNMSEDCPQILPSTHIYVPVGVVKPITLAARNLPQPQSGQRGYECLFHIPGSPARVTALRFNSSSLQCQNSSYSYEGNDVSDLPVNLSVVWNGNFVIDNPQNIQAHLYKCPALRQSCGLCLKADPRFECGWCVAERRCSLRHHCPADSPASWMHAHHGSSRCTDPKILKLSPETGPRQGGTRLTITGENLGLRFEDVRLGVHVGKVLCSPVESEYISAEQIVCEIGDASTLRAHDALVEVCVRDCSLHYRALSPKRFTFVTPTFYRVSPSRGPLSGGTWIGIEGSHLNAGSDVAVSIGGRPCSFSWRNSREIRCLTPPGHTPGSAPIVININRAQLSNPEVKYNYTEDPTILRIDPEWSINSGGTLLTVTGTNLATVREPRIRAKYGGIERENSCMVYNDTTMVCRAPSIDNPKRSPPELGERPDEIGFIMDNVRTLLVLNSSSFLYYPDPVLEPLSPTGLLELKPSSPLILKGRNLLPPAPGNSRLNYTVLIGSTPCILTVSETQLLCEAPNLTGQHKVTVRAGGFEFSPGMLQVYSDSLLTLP

Results are given in words; binding and its absence hold for the method and conditions named. In cells and extracts the contact can be indirect. Some entries that bind do so weakly or less than the wild type. Sequences can lack the tags named with a protein.

This test concerns the target extracellular region of PLXNA1, C-terminally fused to a 6X histidine tag (UniProt P70206). Kind of test: co-IP; PLXNA1 extracellular region-6xHis co-overexpressed with SLIT3-FL-HaloTag or SLIT3-C-HaloTag in a mouse adipocyte progenitor cell line; immunoprecipitation with a His-tag antibody.

B1: SLIT3-C-HaloTag (domain or fragment, UniProt Q9WVB4 1117-1523)
chain: LLQTSPCDQYECQNGAQCIVVQQEPTCRCPPGFAGPRCEKLITVNFVGKDSYVELASAKVRPQANISLQVATDKDNGILLYKGDNDPLALELYQGHVRLVYDSLSSPPTTVYSVETVNDGQFHSVELVMLNQTLNLVVDKGAPKSLGKLQKQPAVGSNSPLYLGGIPTSTGLSALRQGADRPLGGFHGCIHEVRINNELQDFKALPPQSLGVSPGCKSCTVCRHGLCRSVEKDSVVCECHPGWTGPLCDQEARDPCLGHSCRHGTCMATGDSYVCKCAEGYGGALCDQKNDSASACSAFKCHHGQCHISDRGEPYCLCQPGFSGHHCEQENPCMGEIVREAIRRQKDYASCATASKVPIMECRGGCGSQCCQPIRSKRRKYVFQCTDGSSFVEEVERHLECGCRACS
Consider B1, for which the binding entry is given as “binds”.

B2: SLIT3-FL-HaloTag (ligand, UniProt Q9WVB4 34-1523)
chain: CPTKCTCSAASVDCHGLGLRAVPRGIPRNAERLDLDRNNITRITKMDFAGLKNLRVLHLEDNQVSIIERGAFQDLKQLERLRLNKNKLQVLPELLFQSTPKLTRLDLSENQIQGIPRKAFRGVTGVKNLQLDNNHISCIEDGAFRALRDLEILTLNNNNISRILVTSFNHMPKIRTLRLHSNHLYCDCHLAWLSDWLRQRRTIGQFTLCMAPVHLRGFSVADVQKKEYVCPGPHSEAPACNANSLSCPSACSCSNNIVDCRGKGLTEIPANLPEGIVEIRLEQNSIKSIPAGAFTQYKKLKRIDISKNQISDIAPDAFQGLKSLTSLVLYGNKITEIPKGLFDGLVSLQLLLLNANKINCLRVNTFQDLQNLNLLSLYDNKLQTISKGLFVPLQSIQTLHLAQNPFVCDCHLKWLADYLQDNPIETSGARCSSPRRLANKRISQIKSKKFRCSGSEDYRNRFSSECFMDLVCPEKCRCEGTIVDCSNQKLARIPSHLPEYTTDLRLNDNDISVLEATGIFKKLPNLRKINLSNNRIKEVREGAFDGAAGVQELMLTGNQLETMHGRMFRGLSSLKTLMLRSNLISCVSNDTFAGLSSVRLLSLYDNRITTITPGAFTTLVSLSTINLLSNPFNCNCHMAWLGRWLRKRRIVSGNPRCQKPFFLKEIPIQDVAIQDFTCDGNEESSCQLSPRCPEQCTCVETVVRCSNRGLHALPKGMPKDVTELYLEGNHLTAVPKELSAFRQLTLIDLSNNSISMLTNHTFSNMSHLSTLILSYNRLRCIPVHAFNGLRSLRVLTLHGNDISSVPEGSFNDLTSLSHLALGTNPLHCDCSLRWLSEWVKAGYKEPGIARCSSPESMADRLLLTTPTHRFQCKGPVDINIVAKCNACLSSPCKNNGTCSQDPVEQYRCTCPYSYKGKDCTVPINTCVQNPCEHGGTCHLSENLRDGFSCSCPLGFEGQRCEINPDDCEDNDCENSATCVDGINNYACLCPPNYTGELCDEVIDYCVPEMNLCQHEAKCISLDKGFRCECVPGYSGKLCETNNDDCVAHKCRHGAQCVDEVNGYTCICPQGFSGLFCEHPPPMVLLQTSPCDQYECQNGAQCIVVQQEPTCRCPPGFAGPRCEKLITVNFVGKDSYVELASAKVRPQANISLQVATDKDNGILLYKGDNDPLALELYQGHVRLVYDSLSSPPTTVYSVETVNDGQFHSVELVMLNQTLNLVVDKGAPKSLGKLQKQPAVGSNSPLYLGGIPTSTGLSALRQGADRPLGGFHGCIHEVRINNELQDFKALPPQSLGVSPGCKSCTVCRHGLCRSVEKDSVVCECHPGWTGPLCDQEARDPCLGHSCRHGTCMATGDSYVCKCAEGYGGALCDQKNDSASACSAFKCHHGQCHISDRGEPYCLCQPGFSGHHCEQENPCMGEIVREAIRRQKDYASCATASKVPIMECRGGCGSQCCQPIRSKRRKYVFQCTDGSSFVEEVERHLECGCRACS
Take B2: the binding result was “binds”.
